± gives the standard deviation of the averaged measurements. This is a selection; strong and weak results do not stand in their true shares.
Compound: Nc1ncnc2c1ncn2[C@@H]1O[C@H](COP(=O)(O)OP(=O)(O)NP(=O)(O)O)[C@@H](O)[C@H]1O [adenylyl imidodiphosphate]
Assay: NP40-soluble protein abundance relative to vehicle (solubility fold change) (ratio); higher = more soluble protein in presence of AMP-PNP
Procedure, shortened: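 In three independent experiments, Jurkat crude lysate made by Dounce homogenisation was treated for 10 min at room temperature and then 3 min at 37 °C with eight concentrations ranging from 0.1 to 10 mM. It was then solubilised with 0.8% NP40 plus benzonase for 60 min at 4 °C and ultracentrifuged. The supernatant was TMT-labelled for LC-MS/MS, and each value is the fold change against the detergent-processed vehicle for the same replicate, using vsn-normalised intensities.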

Chains of the proteins cited; added tags and fusions are not shown. Lines headed by an entry give the natural chain unless they say otherwise; changes in a name come on top.
UniProt Q9UI08, whole entry: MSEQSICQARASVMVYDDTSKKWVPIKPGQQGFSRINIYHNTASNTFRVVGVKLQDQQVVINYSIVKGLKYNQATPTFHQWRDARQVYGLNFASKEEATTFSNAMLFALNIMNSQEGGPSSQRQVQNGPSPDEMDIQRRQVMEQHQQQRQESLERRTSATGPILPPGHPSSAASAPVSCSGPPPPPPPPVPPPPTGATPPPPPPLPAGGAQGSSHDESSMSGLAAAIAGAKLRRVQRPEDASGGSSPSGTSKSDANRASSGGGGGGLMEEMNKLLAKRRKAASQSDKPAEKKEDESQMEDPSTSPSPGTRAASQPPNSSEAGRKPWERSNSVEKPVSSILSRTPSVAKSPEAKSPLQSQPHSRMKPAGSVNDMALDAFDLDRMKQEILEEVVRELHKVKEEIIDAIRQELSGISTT
UniProt Q9Y294, whole entry: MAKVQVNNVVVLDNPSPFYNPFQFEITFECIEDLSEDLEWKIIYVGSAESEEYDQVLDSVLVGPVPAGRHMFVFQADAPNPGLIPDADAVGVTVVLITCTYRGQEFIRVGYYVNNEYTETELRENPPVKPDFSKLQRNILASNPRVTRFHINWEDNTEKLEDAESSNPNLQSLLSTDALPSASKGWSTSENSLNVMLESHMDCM
UniProt Q9Y276: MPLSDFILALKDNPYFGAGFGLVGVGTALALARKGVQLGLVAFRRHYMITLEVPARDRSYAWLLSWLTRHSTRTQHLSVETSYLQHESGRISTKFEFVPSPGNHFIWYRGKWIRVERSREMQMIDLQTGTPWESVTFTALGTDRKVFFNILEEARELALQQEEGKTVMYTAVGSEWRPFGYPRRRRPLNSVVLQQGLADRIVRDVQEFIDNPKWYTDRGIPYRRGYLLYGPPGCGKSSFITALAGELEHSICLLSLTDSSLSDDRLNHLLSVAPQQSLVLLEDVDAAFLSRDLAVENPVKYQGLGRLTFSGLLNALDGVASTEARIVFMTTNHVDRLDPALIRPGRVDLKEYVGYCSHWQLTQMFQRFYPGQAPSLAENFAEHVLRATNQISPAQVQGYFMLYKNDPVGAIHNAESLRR
UniProt Q9UEY8: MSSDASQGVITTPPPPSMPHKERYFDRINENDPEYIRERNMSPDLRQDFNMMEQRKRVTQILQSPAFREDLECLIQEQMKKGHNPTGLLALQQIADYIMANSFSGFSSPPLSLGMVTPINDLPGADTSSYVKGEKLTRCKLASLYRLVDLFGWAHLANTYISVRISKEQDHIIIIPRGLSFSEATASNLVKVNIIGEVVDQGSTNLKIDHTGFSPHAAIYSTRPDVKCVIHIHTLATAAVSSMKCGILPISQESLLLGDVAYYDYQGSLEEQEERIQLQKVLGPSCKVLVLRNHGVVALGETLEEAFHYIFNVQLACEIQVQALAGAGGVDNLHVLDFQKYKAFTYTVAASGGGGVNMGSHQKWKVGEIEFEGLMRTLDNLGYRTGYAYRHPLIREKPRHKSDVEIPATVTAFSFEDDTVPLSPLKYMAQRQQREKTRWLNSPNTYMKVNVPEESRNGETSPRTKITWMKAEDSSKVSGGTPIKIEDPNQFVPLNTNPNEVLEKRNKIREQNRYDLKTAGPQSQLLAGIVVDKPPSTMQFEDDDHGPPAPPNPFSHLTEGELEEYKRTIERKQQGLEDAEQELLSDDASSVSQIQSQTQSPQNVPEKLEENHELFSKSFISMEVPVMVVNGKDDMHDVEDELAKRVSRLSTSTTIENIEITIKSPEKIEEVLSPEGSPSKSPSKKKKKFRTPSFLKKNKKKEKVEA
UniProt Q9ULJ3: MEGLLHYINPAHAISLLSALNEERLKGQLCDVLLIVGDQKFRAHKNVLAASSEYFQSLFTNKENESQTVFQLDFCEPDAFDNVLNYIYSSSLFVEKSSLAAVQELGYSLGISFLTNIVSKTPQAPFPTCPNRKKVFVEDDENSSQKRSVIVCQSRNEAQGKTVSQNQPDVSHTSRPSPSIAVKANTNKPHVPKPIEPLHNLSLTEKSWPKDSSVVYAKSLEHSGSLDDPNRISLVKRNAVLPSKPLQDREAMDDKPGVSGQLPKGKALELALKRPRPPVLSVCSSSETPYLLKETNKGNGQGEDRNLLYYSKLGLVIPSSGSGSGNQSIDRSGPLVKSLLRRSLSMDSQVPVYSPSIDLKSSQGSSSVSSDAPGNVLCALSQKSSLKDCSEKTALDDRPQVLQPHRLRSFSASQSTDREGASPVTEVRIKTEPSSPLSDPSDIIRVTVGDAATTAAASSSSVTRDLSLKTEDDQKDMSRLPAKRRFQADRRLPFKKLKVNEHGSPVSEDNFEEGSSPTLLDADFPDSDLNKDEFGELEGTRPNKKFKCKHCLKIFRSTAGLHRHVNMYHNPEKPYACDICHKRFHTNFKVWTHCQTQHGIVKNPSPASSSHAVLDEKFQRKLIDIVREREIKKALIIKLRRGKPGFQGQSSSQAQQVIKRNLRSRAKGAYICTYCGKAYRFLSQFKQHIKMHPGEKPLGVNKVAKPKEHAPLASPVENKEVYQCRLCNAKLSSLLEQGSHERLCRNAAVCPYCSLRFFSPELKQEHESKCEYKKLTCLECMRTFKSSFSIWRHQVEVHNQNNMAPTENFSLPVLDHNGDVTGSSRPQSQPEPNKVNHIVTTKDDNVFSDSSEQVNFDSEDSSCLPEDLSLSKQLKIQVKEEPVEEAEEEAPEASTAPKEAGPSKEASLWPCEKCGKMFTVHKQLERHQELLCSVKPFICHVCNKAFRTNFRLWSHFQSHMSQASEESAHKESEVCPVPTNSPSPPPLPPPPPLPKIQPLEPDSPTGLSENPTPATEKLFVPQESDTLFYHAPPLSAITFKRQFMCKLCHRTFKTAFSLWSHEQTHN
UniProt Q9UN37: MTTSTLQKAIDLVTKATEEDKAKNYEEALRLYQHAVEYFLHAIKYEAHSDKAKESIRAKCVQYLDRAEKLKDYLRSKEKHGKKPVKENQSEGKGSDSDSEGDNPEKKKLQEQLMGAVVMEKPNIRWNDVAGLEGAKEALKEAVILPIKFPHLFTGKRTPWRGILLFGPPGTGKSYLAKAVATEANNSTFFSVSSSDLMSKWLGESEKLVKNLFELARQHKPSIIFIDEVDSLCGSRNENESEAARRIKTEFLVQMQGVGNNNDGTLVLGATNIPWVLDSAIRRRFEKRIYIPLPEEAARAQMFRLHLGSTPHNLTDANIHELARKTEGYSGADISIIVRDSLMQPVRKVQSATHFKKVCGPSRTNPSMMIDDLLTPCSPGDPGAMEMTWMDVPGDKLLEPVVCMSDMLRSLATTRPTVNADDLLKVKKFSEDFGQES
UniProt Q9UP95: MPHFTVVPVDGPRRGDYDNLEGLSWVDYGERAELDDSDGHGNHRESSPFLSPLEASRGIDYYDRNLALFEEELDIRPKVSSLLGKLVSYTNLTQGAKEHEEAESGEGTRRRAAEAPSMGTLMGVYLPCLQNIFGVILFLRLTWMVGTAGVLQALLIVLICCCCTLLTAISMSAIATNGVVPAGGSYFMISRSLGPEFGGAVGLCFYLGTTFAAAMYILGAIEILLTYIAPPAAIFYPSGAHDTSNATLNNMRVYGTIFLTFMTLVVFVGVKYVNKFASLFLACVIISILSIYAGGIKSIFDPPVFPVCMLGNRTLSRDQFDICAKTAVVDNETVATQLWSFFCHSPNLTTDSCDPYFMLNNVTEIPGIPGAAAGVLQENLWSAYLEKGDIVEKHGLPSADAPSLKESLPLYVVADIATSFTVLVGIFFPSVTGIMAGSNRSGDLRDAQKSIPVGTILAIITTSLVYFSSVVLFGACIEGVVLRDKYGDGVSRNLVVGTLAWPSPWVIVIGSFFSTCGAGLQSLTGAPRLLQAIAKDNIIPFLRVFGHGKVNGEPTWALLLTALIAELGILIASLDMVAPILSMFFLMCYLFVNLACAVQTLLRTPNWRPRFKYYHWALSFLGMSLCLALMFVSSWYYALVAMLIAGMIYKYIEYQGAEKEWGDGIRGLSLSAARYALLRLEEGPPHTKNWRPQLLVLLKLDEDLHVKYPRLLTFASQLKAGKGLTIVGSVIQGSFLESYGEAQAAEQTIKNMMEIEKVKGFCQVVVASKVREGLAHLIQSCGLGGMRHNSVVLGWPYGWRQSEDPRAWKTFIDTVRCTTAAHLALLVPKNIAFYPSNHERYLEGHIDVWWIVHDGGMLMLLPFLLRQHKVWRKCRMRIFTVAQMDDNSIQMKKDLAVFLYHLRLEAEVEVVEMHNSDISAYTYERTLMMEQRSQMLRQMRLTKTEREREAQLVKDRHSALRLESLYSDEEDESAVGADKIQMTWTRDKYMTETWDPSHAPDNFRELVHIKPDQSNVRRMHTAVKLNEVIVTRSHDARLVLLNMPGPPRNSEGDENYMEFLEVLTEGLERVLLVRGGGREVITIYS
UniProt Q9Y3B2, whole entry: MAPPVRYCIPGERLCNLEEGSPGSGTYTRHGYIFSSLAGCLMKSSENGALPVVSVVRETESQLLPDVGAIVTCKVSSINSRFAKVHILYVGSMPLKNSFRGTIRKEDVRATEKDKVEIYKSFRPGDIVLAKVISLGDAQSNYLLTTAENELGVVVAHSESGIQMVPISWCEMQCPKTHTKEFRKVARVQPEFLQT
UniProt Q9UK45: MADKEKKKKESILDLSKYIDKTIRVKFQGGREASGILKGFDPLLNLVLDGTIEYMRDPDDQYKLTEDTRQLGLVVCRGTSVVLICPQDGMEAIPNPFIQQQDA
UniProt Q9UKB1: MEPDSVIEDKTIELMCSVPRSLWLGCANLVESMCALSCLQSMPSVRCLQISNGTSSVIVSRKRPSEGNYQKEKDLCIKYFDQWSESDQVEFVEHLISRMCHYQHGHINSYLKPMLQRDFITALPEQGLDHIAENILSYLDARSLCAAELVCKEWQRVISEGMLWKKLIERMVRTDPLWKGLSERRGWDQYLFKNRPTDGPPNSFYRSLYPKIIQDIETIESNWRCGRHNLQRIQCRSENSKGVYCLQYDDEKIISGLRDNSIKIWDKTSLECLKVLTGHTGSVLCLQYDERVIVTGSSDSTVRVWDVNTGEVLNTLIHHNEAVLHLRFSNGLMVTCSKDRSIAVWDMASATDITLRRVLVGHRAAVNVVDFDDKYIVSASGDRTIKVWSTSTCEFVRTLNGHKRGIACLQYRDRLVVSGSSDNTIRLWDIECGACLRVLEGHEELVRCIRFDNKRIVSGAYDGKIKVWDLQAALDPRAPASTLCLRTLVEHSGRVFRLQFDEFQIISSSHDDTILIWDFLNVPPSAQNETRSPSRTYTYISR
UniProt Q9Y223: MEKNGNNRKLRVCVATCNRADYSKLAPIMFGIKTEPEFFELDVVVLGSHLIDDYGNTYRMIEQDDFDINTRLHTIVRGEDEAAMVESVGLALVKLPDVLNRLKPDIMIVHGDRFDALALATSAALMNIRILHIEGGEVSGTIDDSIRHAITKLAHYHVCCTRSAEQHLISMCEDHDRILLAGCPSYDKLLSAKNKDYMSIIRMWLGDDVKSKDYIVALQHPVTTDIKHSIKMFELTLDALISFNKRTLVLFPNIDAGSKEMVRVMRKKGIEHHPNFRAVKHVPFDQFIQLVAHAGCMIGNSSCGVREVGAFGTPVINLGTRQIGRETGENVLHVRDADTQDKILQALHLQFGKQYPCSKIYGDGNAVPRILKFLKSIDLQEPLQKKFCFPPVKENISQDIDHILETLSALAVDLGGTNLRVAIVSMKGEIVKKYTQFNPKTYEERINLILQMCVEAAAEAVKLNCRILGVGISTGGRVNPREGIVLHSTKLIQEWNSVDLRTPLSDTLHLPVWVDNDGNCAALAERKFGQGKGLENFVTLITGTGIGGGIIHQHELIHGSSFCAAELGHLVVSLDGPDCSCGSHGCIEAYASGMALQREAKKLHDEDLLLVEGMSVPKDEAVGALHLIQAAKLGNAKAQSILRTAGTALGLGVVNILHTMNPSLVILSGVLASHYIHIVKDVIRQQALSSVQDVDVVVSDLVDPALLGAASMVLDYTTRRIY
UniProt Q9UNI6, whole entry: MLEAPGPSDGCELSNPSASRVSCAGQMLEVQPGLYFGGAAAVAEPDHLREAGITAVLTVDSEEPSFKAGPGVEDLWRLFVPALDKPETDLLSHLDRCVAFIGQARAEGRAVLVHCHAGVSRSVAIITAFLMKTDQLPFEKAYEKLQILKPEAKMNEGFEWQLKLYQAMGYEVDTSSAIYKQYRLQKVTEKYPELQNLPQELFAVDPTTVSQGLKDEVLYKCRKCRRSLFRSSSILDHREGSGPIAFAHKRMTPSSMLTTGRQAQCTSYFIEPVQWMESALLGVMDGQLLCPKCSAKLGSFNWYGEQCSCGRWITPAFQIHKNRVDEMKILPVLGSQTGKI
UniProt Q9Y2Q5, whole entry: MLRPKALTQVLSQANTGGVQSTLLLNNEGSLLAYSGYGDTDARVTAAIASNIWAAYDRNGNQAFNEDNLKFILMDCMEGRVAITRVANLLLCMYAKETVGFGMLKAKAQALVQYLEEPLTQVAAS
UniProt Q9UL25: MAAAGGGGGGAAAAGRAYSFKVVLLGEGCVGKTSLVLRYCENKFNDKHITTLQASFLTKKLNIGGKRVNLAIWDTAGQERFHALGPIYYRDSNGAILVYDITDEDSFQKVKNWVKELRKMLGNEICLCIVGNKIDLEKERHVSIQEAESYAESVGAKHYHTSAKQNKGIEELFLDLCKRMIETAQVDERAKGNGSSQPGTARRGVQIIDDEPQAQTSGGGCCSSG

Target	NP40-soluble protein abundance (concentration: 1mM)	NP40-soluble protein abundance (concentration: 2mM)	NP40-soluble protein abundance (concentration: 4mM)	NP40-soluble protein abundance (concentration: 6mM)	NP40-soluble protein abundance (concentration: 8mM)	NP40-soluble protein abundance (concentration: 10mM)
UniProt Q9UI08-2|G3V5F7	1.05 ± 0.014	1.05 ± 0.062	1.04 ± 0.029	0.9877 ± 0.0042	1.01 ± 0.045	0.992 ± 0.041
UBE2J1 (UniProt Q9Y385)	0.97 ± 0.012	0.974 ± 0.014	0.9584 ± 0.0065	0.915 ± 0.055	0.882 ± 0.051	0.908 ± 0.028
ZHX1 (UniProt Q9UKY1)	1.03 ± 0.046	1.06 ± 0.061	1.01 ± 0.039	1.01 ± 0.033	1.05 ± 0.056	1.06 ± 0.081
ASF1A (UniProt Q9Y294)	0.958 ± 0.077	0.863 ± 0.091	0.904 ± 0.068	0.921 ± 0.037	0.946 ± 0.032	0.844 ± 0.11
DDX20 (UniProt Q9UHI6)	0.994 ± 0.095	1 ± 0.061	0.974 ± 0.12	0.977 ± 0.12	0.945 ± 0.097	0.99 ± 0.13
TPX2 (UniProt Q9ULW0)	1.09 ± 0.013	1.2 ± 0.077	1.23 ± 0.066	1.27 ± 0.049	1.32 ± 0.072	1.39 ± 0.049
RAB23 (UniProt Q9ULC3)	0.9714 ± 0.0024	0.9596 ± 0.0092	0.974 ± 0.029	1.01 ± 0.029	1.03 ± 0.044	1 ± 0.018
SCML2 (UniProt Q9UQR0)	1.08 ± 0.049	1.09 ± 0.058	1.17 ± 0.075	1.18 ± 0.069	1.19 ± 0.087	1.27 ± 0.11
BCS1L (UniProt Q9Y276)	0.966 ± 0.021	0.874 ± 0.11	0.996 ± 0.024	0.955 ± 0.035	0.982 ± 0.024	0.937 ± 0.035
MRPL11 (UniProt Q9Y3B7)	0.909 ± 0.046	1.02 ± 0.048	0.941 ± 0.045	0.986 ± 0.061	0.999 ± 0.082	0.985 ± 0.094
UniProt Q9UNS1 and related entries	0.986 ± 0.035	0.97 ± 0.054	0.946 ± 0.031	0.932 ± 0.024	0.911 ± 0.05	0.916 ± 0.051
NRBP1 (UniProt Q9UHY1)	1.03 ± 0.021	1.02 ± 0.018	1.01 ± 0.02	1.01 ± 0.012	1 ± 0.025	1.02 ± 0.036
ADD3 (UniProt Q9UEY8)	0.998 ± 0.032	0.976 ± 0.052	1.01 ± 0.018	0.9833 ± 0.0087	1.01 ± 0.013	0.993 ± 0.019
UniProt Q9ULJ3 and related entries	1.02 ± 0.029	1.01 ± 0.039	0.997 ± 0.023	0.964 ± 0.02	0.941 ± 0.033	0.954 ± 0.025
UniProt Q9UNM6 and related entries	0.902 ± 0.0098	0.817 ± 0.056	0.868 ± 0.068	0.885 ± 0.053	0.892 ± 0.074	0.841 ± 0.095
VPS4A (UniProt Q9UN37)	1.02 ± 0.043	1.06 ± 0.027	1.02 ± 0.056	1 ± 0.099	0.961 ± 0.076	0.967 ± 0.044
POLK (UniProt Q9UBT6)	1.02 ± 0.042	1.04 ± 0.042	1.01 ± 0.02	1.01 ± 0.013	0.9996 ± 0.0059	0.995 ± 0.015
UniProt Q9UP95 and related entries	0.99 ± 0.015	1.01 ± 0.04	0.988 ± 0.041	0.966 ± 0.063	0.966 ± 0.024	0.965 ± 0.031
PPIL1 (UniProt Q9Y3C6)	0.979 ± 0.012	0.987 ± 0.015	0.98 ± 0.0096	1.06 ± 0.075	1.05 ± 0.037	1.05 ± 0.051
UniProt Q9UJY5 and related entries	1 ± 0.034	1.02 ± 0.035	1.01 ± 0.043	0.98 ± 0.014	0.97 ± 0.025	0.952 ± 0.045
UniProt Q9UKZ1	0.958 ± 0.0096	0.9834 ± 0.0049	0.995 ± 0.058	1.02 ± 0.038	1.01 ± 0.065	1.04 ± 0.053

Part of the list above, with each value named:
RAB23 (UniProt Q9ULC3)
  NP40-soluble protein abundance (concentration: 1mM): 0.9714 ± 0.0024
  NP40-soluble protein abundance (concentration: 2mM): 0.9596 ± 0.0092
  NP40-soluble protein abundance (concentration: 4mM): 0.974 ± 0.029
  NP40-soluble protein abundance (concentration: 6mM): 1.01 ± 0.029
  NP40-soluble protein abundance (concentration: 8mM): 1.03 ± 0.044
  NP40-soluble protein abundance (concentration: 10mM): 1 ± 0.018
NRBP1 (UniProt Q9UHY1)
  NP40-soluble protein abundance (concentration: 1mM): 1.03 ± 0.021
  NP40-soluble protein abundance (concentration: 2mM): 1.02 ± 0.018
  NP40-soluble protein abundance (concentration: 4mM): 1.01 ± 0.02
  NP40-soluble protein abundance (concentration: 6mM): 1.01 ± 0.012
  NP40-soluble protein abundance (concentration: 8mM): 1 ± 0.025
  NP40-soluble protein abundance (concentration: 10mM): 1.02 ± 0.036

(next part)

Target	NP40-soluble protein abundance (concentration: 1mM)	NP40-soluble protein abundance (concentration: 2mM)	NP40-soluble protein abundance (concentration: 4mM)	NP40-soluble protein abundance (concentration: 6mM)	NP40-soluble protein abundance (concentration: 8mM)	NP40-soluble protein abundance (concentration: 10mM)
UniProt Q9Y3B2 and related entries	0.985 ± 0.045	1.02 ± 0.053	1.01 ± 0.077	1.13 ± 0.076	1.1 ± 0.092	1.12 ± 0.14
MRPS28 (UniProt Q9Y2Q9)	0.997 ± 0.08	1.03 ± 0.053	0.952 ± 0.063	0.936 ± 0.095	0.92 ± 0.073	0.93 ± 0.11
UniProt Q9UH92 and related entries	0.99 ± 0.027	0.997 ± 0.068	1.01 ± 0.048	1.02 ± 0.038	1 ± 0.038	1.03 ± 0.023
LSM7 (UniProt Q9UK45)	1.03 ± 0.041	1.11 ± 0.088	1.02 ± 0.042	1.1 ± 0.072	1.11 ± 0.059	1.11 ± 0.036
UniProt Q9UKB1 and related entries	0.995 ± 0.016	0.961 ± 0.04	0.983 ± 0.011	1.01 ± 0.036	1.008 ± 0.0086	0.986 ± 0.051
NIPSNAP3A (UniProt Q9UFN0)	0.942 ± 0.058	0.879 ± 0.079	0.965 ± 0.098	0.961 ± 0.031	0.991 ± 0.05	0.948 ± 0.096
UniProt Q9Y2L9 and related entries	1.02 ± 0.023	0.982 ± 0.019	1 ± 0.014	0.995 ± 0.015	0.9961 ± 0.0029	0.9858 ± 0.0035
SEC63 (UniProt Q9UGP8)	0.9907 ± 0.0042	0.989 ± 0.029	0.999 ± 0.029	0.999 ± 0.033	1.01 ± 0.056	0.989 ± 0.047
UniProt Q9UEW8 and related entries	1.03 ± 0.066	1.05 ± 0.035	0.999 ± 0.033	1.04 ± 0.057	0.992 ± 0.06	1.03 ± 0.046
UniProt Q9Y2S2 and related entries	0.983 ± 0.079	0.911 ± 0.074	0.984 ± 0.046	0.971 ± 0.088	1.01 ± 0.064	0.97 ± 0.076
AP3M1 (UniProt Q9Y2T2)	0.953 ± 0.041	0.942 ± 0.062	0.993 ± 0.039	1.02 ± 0.044	1.05 ± 0.012	1 ± 0.041
UniProt Q9Y2I8 and related entries	1.01 ± 0.017	0.981 ± 0.02	1.017 ± 0.0087	0.996 ± 0.036	1.01 ± 0.015	0.99 ± 0.021
UniProt Q9Y223 and related entries	0.965 ± 0.033	0.909 ± 0.08	0.955 ± 0.022	0.932 ± 0.034	0.951 ± 0.028	0.918 ± 0.039
UniProt Q9UPN6 and related entries	1.03 ± 0.016	1.09 ± 0.06	1.09 ± 0.038	1.08 ± 0.025	1.08 ± 0.046	1.08 ± 0.028
DUSP12 (UniProt Q9UNI6)	0.9745 ± 0.0053	0.979 ± 0.014	0.971 ± 0.01	1 ± 0.067	0.98 ± 0.069	0.983 ± 0.059
UniProt Q9Y2Q5 and related entries	0.979 ± 0.018	0.9754 ± 0.0018	0.997 ± 0.015	1.05 ± 0.057	1.07 ± 0.039	1.019 ± 0.0059
RAB21 (UniProt Q9UL25)	0.996 ± 0.032	0.985 ± 0.028	1.01 ± 0.025	1.08 ± 0.11	1.08 ± 0.073	1.11 ± 0.075
AP4E1 (UniProt Q9UPM8)	1.03 ± 0.051	1.012 ± 0.0085	1.04 ± 0.027	1.02 ± 0.034	1.01 ± 0.024	1.06 ± 0.034
UniProt Q9Y222 and related entries	0.989 ± 0.043	0.992 ± 0.04	0.974 ± 0.029	1.01 ± 0.064	1.02 ± 0.04	0.992 ± 0.027
UBQLN1 (UniProt Q9UMX0)	0.991 ± 0.053	1.01 ± 0.011	1 ± 0.033	0.983 ± 0.035	0.95 ± 0.06	0.998 ± 0.061

From the supplement of paper PMC6411743
